In the supplement of paper PMC10849652:
This is one part of the list.

By UniProt entry, the sequences of proteins in these tests, tags left out. Where a name states a change or a piece, a line headed by the entry shows the natural chain unless it says otherwise.
UniProt Q9BSG0: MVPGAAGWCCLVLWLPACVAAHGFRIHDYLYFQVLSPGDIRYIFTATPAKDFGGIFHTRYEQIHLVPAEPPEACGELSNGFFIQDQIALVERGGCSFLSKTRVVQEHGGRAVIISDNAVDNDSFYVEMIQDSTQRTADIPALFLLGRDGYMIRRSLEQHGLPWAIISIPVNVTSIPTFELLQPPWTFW
UniProt P67775, whole entry, looked up: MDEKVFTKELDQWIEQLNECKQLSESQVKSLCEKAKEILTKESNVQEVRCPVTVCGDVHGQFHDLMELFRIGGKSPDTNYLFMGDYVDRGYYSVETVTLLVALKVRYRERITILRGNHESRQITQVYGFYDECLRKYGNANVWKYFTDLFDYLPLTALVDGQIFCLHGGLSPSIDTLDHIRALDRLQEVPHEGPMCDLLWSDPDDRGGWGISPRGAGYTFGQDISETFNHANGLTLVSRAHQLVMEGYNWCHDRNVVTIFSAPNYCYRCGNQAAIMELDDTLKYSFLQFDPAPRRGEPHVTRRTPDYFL
UniProt Q9ULR3: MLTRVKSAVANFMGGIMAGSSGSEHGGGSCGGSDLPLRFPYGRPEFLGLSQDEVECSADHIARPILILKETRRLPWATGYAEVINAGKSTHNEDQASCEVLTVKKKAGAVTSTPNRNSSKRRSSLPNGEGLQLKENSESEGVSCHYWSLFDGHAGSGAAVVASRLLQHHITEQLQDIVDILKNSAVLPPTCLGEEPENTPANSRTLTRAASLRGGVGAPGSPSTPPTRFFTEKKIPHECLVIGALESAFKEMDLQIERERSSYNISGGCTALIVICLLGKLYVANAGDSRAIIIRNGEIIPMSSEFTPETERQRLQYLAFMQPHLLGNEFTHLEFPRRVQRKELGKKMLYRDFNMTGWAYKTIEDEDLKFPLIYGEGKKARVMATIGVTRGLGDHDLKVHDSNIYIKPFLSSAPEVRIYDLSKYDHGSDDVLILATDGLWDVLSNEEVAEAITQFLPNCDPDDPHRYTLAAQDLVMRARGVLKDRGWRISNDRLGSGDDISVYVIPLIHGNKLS
UniProt O94906: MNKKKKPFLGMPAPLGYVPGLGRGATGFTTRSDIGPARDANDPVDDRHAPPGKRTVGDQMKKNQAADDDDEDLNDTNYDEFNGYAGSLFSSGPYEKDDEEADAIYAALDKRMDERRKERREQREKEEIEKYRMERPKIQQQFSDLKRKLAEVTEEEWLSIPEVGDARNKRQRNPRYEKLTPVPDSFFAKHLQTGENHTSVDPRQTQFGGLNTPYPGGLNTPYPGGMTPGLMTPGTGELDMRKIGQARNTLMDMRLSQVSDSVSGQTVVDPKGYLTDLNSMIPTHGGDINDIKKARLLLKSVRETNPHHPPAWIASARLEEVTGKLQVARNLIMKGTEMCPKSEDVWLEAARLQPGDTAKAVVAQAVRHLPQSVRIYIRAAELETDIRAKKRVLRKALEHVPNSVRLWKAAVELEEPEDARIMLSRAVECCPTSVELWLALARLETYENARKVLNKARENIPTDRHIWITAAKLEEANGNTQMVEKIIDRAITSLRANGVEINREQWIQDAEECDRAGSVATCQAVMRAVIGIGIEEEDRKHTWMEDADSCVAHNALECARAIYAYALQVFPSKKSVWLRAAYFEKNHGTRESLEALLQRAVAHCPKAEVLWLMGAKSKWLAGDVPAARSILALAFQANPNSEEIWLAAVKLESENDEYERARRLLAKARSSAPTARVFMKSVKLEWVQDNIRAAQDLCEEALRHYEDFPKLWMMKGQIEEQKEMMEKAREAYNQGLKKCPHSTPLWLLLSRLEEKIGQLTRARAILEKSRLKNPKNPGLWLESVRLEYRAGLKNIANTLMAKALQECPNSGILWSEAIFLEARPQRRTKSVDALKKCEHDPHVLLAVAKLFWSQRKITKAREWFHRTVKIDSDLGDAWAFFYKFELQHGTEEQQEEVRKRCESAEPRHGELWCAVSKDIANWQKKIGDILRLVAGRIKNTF
UniProt Q8NI37: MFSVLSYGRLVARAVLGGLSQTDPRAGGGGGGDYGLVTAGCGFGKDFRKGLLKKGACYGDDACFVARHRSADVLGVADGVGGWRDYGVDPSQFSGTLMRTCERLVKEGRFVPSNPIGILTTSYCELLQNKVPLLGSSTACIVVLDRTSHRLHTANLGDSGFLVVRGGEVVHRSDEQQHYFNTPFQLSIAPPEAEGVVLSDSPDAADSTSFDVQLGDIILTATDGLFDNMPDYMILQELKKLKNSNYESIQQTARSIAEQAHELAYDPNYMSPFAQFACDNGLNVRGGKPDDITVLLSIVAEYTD
UniProt Q13029: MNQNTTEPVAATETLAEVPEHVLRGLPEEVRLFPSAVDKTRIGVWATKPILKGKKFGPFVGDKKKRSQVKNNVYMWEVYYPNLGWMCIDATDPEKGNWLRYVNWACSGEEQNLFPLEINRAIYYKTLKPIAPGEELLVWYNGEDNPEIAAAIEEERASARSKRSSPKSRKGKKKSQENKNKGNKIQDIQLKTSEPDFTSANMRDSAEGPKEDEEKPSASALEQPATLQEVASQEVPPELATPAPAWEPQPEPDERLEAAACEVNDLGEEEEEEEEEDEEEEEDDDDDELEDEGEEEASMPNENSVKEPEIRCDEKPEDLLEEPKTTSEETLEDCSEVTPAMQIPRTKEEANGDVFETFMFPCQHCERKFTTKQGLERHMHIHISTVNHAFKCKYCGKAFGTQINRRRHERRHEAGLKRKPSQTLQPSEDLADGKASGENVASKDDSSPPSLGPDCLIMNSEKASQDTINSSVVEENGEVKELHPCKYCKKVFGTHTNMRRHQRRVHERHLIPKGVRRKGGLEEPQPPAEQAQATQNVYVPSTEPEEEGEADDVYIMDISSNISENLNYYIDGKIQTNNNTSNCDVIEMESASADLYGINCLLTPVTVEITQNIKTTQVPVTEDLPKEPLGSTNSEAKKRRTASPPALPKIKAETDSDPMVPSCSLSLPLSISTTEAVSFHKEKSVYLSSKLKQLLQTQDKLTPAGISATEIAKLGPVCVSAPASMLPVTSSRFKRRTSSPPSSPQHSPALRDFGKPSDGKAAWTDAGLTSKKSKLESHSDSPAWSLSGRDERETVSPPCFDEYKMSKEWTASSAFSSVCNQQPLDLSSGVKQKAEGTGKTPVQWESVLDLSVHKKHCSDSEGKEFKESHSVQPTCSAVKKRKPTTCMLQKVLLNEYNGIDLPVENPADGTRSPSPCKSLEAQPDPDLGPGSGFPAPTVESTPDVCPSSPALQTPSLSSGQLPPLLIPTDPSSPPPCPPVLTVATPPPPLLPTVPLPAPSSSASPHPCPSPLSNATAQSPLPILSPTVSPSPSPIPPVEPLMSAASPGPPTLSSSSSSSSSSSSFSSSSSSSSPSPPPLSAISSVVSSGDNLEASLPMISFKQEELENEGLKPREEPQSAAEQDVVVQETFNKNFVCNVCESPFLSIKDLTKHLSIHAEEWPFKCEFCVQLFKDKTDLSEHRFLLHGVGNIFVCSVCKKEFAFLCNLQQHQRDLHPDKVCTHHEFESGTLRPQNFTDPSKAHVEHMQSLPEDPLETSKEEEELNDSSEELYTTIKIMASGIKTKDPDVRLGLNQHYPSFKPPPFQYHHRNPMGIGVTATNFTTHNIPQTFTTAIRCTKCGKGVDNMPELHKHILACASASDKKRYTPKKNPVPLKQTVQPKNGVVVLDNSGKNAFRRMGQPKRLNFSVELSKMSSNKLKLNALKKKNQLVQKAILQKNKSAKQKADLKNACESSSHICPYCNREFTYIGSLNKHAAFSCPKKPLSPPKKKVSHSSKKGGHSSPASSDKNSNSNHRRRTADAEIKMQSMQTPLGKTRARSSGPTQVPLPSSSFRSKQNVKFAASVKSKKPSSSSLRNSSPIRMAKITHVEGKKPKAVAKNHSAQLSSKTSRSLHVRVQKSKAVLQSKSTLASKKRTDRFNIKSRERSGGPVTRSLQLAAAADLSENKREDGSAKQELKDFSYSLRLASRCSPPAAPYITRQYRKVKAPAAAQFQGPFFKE
UniProt P41219, whole entry, looked up: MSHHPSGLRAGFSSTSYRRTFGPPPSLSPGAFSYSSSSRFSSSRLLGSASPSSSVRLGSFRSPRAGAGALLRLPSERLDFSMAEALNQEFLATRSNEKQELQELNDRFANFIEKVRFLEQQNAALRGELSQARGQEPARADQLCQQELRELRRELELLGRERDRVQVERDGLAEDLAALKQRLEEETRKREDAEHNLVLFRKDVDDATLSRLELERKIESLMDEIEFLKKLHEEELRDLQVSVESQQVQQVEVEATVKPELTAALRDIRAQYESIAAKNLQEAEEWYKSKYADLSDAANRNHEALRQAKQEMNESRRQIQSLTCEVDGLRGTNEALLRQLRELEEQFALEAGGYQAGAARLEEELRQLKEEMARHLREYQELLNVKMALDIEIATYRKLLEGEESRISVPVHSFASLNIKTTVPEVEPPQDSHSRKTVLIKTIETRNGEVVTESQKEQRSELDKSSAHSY
UniProt Q9BZL4: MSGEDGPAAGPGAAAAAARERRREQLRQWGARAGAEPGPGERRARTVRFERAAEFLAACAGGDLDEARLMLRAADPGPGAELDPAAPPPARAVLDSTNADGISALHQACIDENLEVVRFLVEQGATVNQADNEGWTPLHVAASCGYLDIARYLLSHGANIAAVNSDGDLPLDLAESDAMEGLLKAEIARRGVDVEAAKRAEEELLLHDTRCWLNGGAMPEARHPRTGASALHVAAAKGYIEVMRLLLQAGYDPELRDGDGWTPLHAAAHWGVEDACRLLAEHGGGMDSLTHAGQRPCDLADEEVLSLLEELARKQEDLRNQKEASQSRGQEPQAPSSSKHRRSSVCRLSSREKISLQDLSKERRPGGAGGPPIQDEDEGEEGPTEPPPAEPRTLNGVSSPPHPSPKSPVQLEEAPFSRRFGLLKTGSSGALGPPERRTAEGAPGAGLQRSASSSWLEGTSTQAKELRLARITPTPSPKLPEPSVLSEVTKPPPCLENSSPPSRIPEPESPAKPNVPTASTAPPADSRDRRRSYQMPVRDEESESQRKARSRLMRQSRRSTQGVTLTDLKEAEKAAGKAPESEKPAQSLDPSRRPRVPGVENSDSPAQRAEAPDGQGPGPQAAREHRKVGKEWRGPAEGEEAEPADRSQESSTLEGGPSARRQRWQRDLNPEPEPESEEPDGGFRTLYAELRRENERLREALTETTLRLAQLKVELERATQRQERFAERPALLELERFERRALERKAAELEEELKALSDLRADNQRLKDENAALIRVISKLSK
UniProt Q9ULJ8: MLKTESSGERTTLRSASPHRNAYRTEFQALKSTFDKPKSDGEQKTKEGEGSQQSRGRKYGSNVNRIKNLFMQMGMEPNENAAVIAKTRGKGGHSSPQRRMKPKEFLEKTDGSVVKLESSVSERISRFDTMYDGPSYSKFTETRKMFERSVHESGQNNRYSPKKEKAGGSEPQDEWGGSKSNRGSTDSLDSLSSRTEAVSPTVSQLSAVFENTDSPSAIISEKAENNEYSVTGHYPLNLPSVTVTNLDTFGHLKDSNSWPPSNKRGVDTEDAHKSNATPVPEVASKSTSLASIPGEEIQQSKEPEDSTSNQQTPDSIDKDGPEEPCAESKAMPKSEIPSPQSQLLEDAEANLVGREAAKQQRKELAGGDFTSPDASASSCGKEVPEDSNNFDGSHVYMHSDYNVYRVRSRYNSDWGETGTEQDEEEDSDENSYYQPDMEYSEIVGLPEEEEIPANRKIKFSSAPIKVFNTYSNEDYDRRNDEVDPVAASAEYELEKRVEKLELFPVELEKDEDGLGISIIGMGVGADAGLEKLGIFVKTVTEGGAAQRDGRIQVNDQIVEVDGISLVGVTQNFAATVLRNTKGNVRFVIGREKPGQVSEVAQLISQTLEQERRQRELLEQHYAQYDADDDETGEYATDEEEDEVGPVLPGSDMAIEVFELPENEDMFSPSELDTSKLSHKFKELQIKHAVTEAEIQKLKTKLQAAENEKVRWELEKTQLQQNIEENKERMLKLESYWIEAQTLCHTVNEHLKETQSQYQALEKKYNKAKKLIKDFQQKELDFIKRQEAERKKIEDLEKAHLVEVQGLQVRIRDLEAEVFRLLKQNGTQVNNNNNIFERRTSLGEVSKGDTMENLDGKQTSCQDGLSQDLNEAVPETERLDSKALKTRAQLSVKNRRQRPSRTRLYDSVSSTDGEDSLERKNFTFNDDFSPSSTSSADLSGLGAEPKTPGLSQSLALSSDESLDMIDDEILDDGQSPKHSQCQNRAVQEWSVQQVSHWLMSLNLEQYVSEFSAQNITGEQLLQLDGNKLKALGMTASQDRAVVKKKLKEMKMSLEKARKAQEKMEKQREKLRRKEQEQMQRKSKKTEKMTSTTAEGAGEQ
UniProt Q9Y255: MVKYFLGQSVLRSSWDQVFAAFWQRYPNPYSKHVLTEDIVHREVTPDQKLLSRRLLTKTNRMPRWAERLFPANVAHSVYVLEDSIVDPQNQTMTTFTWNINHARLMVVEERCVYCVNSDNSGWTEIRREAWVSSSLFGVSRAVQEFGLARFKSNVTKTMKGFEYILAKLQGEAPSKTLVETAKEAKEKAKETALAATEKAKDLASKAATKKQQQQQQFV

Columns and labels:
Assay in all cases: log2 fold change, soluble protein after heating vs DMSO (PISA); higher = thermal stabilisation; K562 cells, 10 uM, 30 min; active = over 0.2 and 3.5 SD of the protein, either way, in both replicates (recomputed)
[1] = compound: CC1=C(SC2=C1C(=N[C@H](C3=NN=C(N32)C)CC(=O)N)C4=CC=C(C=C4)Cl)C
Method in brief: (§1)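 Quantification of soluble protein used TMTpro 16plex LC-MS/MS, with channel sums equalised. Samples were the supernatant after 21,000xg for 90 min of pooled aliquots from K562 cells (2×10^6 cells/mL) treated with 10 μM compound for 30 min, heated for 3 min over 48°C-58°C, and extracted in PBS with 0.5% NP-40 at 4°C. Values, from duplicates, describe thermal stability against control samples on a log2 fold-change scale.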

[2] = compound: CC1=C2C(=CC=C1)N=C(N(C2=O)C3=CC=CC=C3C)CN4C=NC5=C(N=CN=C54)N
Method in brief: as §1

[3] = compound: Cc1sc2c(c1C)C(c1ccc(Cl)cc1)=N[C@@H](CC(=O)OC(C)(C)C)c1nnc(C)n1-2
Method in brief: as §1

[4] = compound: c1ccc([C@@H]2C[C@H]2NC2CCNCC2)cc1
Method in brief: as §1

[5] = compound: C1=CC=C(C=C1)[C@H](COC2=CC3=C(C=C2)NC(=O)N3)NC(=O)C4=CC=CN(C4=O)CC5=CC(=C(C=C5)F)F
Method in brief: as §1

Measured: log2 fold change

PRADC1 (UniProt Q9BSG0)
inactive: [1] -0.154 | [2] 0 | [3] -0.097 | [4] -0.087

PPP2R1B (UniProt H0YDG7)
inactive: [5] 0.085 | [1] 0.165 | [3] 0.135 | [4] 0.07

PPP3CA (UniProt Q08209)
inactive: [5] -0.032 | [1] 0.009 | [2] -0.105 | [3] -0.049 | [4] -0.027

PPP1R21 (UniProt Q6ZMI0)
inactive: [5] 0.076 | [1] 0.066 | [2] 0.133 | [4] 0.089

PRPF39 (UniProt Q86UA1)
inactive: [1] -0.101 | [3] 0.185 | [4] 0.144

PPP1R3D (UniProt O95685)
inactive: [5] -0.101 | [1] 0.044 | [3] -0.105 | [4] -0.04

PPP2CA (UniProt P67775)
inactive: [5] -0.056 | [1] 0.059 | [2] 0.007 | [3] -0.028 | [4] 0.016

PRKAG2 (UniProt Q9UGJ0)
inactive: [5] -0.025 | [1] 0.073 | [2] 0.022 | [3] 0.041 | [4] -0.087

PRR3 (UniProt P79522)
inactive: [3] 0.306

PPME1 (UniProt Q9Y570)
inactive: [5] -0.039 | [1] 0.061 | [2] 0.033 | [3] -0.027 | [4] -0.012

PPM1H (UniProt Q9ULR3)
inactive: [5] -0.009 | [1] 0.068 | [2] 0.026 | [3] -0.004 | [4] 0.03

PRR14L (UniProt Q5THK1)
inactive: [1] -0.052 | [2] 0.312 | [3] 0.042 | [4] 0.103

PRPF6 (UniProt O94906)
inactive: [5] -0.286 | [3] 0.184

PPTC7 (UniProt Q8NI37)
inactive: [2] 0.1

PRKAR1A (UniProt P10644)
inactive: [5] 0.213 | [1] -0.019 | [2] 0.119 | [3] 0.041 | [4] -0.008

PPP1R13L (UniProt Q8WUF5)
inactive: [5] -0.271 | [2] -0.023 | [3] -0.051

PPP6R2 isoform 5 (UniProt O75170)
inactive: [5] -0.017 | [1] 0.012 | [2] -0.006 | [3] -0.022 | [4] -0.004

PPP2R3B (UniProt Q9Y5P8)
inactive: [2] 0.13 | [3] -0.01

PRPSAP2 (UniProt O60256)
inactive: [5] 0.009 | [1] -0.026 | [2] -0.027 | [3] -0.012 | [4] 0

PRDM2 (UniProt Q13029)
inactive: [1] -0.149 | [2] -0.427 | [3] 0.073 | [4] 0.001

PRIMPOL (UniProt Q96LW4)
inactive: [1] 0.183 | [3] -0.049 | [4] 0.012

PRPH isoform 2 (UniProt P41219)
inactive: [5] 0.197 | [1] -0.094 | [2] -0.085 | [3] 0.095 | [4] 0.037

PPP4C (UniProt P60510)
inactive: [5] 0.028 | [1] 0.011 | [2] 0.035 | [3] 0.014 | [4] 0.006

PRKD3 (UniProt O94806)
inactive: [5] -0.103 | [1] 0.044 | [2] -0.007 | [4] -0.097

PPP2R5B (UniProt Q15173)
inactive: [5] -0.058 | [2] -0.098

PPP2R3C (UniProt Q969Q6)
inactive: [3] 0.122

PROSER1 (UniProt Q86XN7)
inactive: [3] 0.138

PPP1R12C (UniProt Q9BZL4)
inactive: [5] -0.16 | [2] 0.05 | [3] 0.053

PRDX5 (UniProt P30044)
inactive: [5] 0.03 | [1] 0.039 | [2] 0.042 | [3] -0.015 | [4] 0.012

PPP1R9A isoform 3 (UniProt Q9ULJ8)
inactive: [5] 0.176 | [2] -0.049

Random excerpt: 2 records from the list
PPP1R12C (UniProt Q9BZL4)
inactive: [5] -0.16 | [2] 0.05 | [3] 0.053

PROSER1 (UniProt Q86XN7)
inactive: [3] 0.138

Following part

PPP2R5C isoform 4 (UniProt Q13362)
inactive: [5] -0.03 | [1] -0.003 | [2] 0.117 | [3] -0.019 | [4] 0.012

PRG4 (UniProt Q92954)
inactive: [5] 0.007 | [1] -0.044 | [2] -0.15 | [3] -0.309 | [4] -0.033

PRC1 (UniProt O43663)
inactive: [1] -0.057 | [3] -0.036 | [4] 0.041

PROSER3, A0A2R8Y8D9
inactive: [1] -0.022 | [3] -0.115 | [4] -0.108

PRELID1 (UniProt Q9Y255)
inactive: [5] 0.108 | [2] 0.025 | [3] 0.034
